Source: publication PMC4414162
No constants are given. Whether binding was seen depends on the method and setting. Binding seen in cells or lysates may run through a third protein. Some entries that bind do so weakly or less than the wild type. Each block holds one molecule with its values, some of them ahead of it.

By UniProt entry, the sequences of proteins in these tests, tags left out.
UniProt P53667: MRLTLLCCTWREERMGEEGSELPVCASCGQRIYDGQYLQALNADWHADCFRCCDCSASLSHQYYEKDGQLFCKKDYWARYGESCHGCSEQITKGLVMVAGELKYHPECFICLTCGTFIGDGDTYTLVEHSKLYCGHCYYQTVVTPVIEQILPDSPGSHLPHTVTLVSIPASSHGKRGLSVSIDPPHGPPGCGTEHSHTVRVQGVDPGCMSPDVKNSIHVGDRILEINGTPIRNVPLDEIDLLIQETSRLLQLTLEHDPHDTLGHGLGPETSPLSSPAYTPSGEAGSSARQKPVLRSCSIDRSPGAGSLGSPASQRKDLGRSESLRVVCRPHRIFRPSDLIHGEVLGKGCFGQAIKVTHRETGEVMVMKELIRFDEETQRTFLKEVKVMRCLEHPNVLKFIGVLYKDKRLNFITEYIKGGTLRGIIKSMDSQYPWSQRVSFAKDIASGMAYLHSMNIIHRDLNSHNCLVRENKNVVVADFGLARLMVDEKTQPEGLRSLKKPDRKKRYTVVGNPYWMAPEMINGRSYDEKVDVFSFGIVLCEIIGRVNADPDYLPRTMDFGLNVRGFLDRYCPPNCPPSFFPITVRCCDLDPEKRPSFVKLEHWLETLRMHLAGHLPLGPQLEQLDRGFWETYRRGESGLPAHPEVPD
UniProt Q9NQU5: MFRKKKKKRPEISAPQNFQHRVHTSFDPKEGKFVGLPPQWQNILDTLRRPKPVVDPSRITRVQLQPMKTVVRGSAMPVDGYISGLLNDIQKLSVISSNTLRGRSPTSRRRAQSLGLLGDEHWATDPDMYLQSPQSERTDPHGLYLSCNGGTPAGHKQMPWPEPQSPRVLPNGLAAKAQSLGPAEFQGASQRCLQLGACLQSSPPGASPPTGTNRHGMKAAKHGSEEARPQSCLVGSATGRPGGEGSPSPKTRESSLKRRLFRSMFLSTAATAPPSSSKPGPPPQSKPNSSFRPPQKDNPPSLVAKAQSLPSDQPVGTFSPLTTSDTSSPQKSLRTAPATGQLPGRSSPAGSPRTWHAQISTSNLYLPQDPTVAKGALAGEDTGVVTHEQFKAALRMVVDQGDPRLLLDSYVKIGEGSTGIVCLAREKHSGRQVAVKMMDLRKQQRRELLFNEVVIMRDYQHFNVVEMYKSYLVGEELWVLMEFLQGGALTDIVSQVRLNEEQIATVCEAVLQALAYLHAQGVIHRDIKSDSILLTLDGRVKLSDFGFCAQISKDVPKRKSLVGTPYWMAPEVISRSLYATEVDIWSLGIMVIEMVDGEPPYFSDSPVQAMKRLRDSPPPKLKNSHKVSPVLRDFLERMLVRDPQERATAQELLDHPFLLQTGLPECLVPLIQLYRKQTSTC
UniProt P46940: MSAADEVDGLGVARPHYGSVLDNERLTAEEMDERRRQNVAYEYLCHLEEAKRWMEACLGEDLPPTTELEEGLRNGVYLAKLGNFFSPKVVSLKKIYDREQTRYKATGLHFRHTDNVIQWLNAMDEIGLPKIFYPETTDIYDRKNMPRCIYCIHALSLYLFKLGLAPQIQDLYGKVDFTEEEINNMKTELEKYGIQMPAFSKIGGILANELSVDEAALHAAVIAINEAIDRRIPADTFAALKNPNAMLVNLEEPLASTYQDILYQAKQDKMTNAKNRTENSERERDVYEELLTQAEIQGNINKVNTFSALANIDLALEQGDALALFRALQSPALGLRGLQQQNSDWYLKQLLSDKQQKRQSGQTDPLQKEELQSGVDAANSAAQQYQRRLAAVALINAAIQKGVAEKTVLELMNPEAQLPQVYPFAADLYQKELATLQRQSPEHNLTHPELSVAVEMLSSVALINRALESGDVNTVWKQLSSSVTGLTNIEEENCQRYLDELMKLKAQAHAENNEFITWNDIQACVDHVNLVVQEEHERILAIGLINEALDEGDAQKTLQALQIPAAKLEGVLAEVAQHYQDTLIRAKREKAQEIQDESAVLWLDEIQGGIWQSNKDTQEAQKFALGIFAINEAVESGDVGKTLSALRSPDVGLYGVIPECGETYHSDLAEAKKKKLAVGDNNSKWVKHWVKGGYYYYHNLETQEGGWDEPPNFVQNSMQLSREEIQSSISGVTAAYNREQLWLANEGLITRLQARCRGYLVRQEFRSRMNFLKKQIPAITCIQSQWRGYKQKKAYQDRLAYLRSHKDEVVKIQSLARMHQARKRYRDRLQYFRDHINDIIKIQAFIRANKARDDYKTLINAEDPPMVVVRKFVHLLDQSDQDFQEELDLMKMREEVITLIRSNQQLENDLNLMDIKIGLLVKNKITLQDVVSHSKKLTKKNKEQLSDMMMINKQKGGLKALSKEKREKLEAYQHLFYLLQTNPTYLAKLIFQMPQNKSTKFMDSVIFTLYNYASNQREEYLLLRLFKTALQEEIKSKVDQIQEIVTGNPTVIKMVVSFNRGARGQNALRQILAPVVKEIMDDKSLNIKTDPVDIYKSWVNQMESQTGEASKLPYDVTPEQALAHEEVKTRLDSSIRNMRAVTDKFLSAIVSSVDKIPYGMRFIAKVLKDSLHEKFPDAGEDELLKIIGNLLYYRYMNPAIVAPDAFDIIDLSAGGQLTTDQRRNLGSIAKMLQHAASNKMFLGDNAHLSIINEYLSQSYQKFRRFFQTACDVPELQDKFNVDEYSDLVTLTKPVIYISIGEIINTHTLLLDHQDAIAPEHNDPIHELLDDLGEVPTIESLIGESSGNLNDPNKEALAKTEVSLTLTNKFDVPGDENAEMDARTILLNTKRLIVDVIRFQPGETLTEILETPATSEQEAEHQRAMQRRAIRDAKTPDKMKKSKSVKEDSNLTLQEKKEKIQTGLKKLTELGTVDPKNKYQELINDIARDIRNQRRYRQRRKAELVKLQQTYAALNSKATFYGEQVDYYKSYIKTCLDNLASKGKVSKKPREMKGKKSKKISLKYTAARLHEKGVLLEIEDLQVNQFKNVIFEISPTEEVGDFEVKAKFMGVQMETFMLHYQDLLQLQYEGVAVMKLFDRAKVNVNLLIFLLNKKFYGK

How the values were obtained:
[1] = target: LIM kinase 1 (LIMK1) (human (endogenous in PC-3 and DU145)) (UniProt P53667); assay: co-IP; endogenous proteins in PC-3 (and DU145) cell lysates; lysis buffer 1% Triton X-100, 150 mM NaCl, 20 mM Tris-Cl pH 7.4, 1 mM EDTA, 1 mM EGTA; IP with 4 ug PAK6 or LIMK1 antibody and protein G plus/protein A-agarose, 16 h at 4°C; Western blot with anti-LIMK1 or anti-PAK6; control IgG
[2] = target: LIM kinase 1 (LIMK1) (human (endogenous in PC-3 and DU145)) (UniProt P53667); assay: co-IP; co-IP in prostate cancer cells, told only in the discussion, no figure; cell line and bait not stated
[3] = target: p21-activated kinase 6 (PAK6) (human (endogenous in PC-3 and DU145)) (UniProt Q9NQU5); assay: co-IP; endogenous proteins in PC-3 (and DU145) cell lysates; lysis buffer 1% Triton X-100, 150 mM NaCl, 20 mM Tris-Cl pH 7.4, 1 mM EDTA, 1 mM EGTA; IP with 4 ug PAK6 or LIMK1 antibody and protein G plus/protein A-agarose, 16 h at 4°C; Western blot with anti-LIMK1 or anti-PAK6; control IgG
[4] = target: LIM kinase 1 (LIMK1) (human (endogenous in PC-3 and DU145)), P53667; assay: co-IP; co-IP in prostate cancer cells, told only in the discussion, no figure; cell line and bait not stated; settings: remark: other sources report otherwise

Molecule: p21-activated kinase 6 (PAK6) (from UniProt Q9NQU5 1-681)
binding [1]: binds

Molecule: LIM kinase 1 (LIMK1) (from UniProt P53667 1-647)
binding [3]: binds

The next lines start with the values.

binding [2]: no binding
Molecule: IQGAP1 (from UniProt P46940 1-1657)

binding [4]: no binding
B1: beta-catenin, P35222 1-781 (protein)
chain: MATQADLMELDMAMEPDRKAAVSHWQQQSYLDSGIHSGATTTAPSLSGKGNPEEEDVDTSQVLYEWEQGFSQSFTQEQVADIDGQYAMTRAQRVRAAMFPETLDEGMQIPSTQFDAAHPTNVQRLAEPSQMLKHAVVNLINYQDDAELATRAIPELTKLLNDEDQVVVNKAAVMVHQLSKKEASRHAIMRSPQMVSAIVRTMQNTNDVETARCTAGTLHNLSHHREGLLAIFKSGGIPALVKMLGSPVDSVLFYAITTLHNLLLHQEGAKMAVRLAGGLQKMVALLNKTNVKFLAITTDCLQILAYGNQESKLIILASGGPQALVNIMRTYTYEKLLWTTSRVLKVLSVCSSNKPAIVEAGGMQALGLHLTDPSQRLVQNCLWTLRNLSDAATKQEGMEGLLGTLVQLLGSDDINVVTCAAGILSNLTCNNYKNKMMVCQVGGIEALVRTVLRAGDREDITEPAICALRHLTSRHQEAEMAQNAVRLHYGLPVVVKLLHPPSHWPLIKATVGLIRNLALCPANHAPLREQGAIPRLVQLLVRAHQDTQRRTSMGGTQQQFVEGVRMEEIVEGCTGALHILARDVHNRIVIRGLNTIPLFVQLLYSPIENIQRVAAGVLCELAQDKEAAEAIEAEGATAPLTELLHSRNEGVATYAAAVLFRMSEDKPQDYKKRLSVELTSSLFRTEPMAWNETADLGLDIGAQGEPLGYRQDDPSYRSFHSGGYGQDALGMDPMMEHEMGGHHPGADYPVDGLPDLGHAQDLMDGLPPGDSNQLAWFDTDL
